Measured values from article PMC3734201.
No constants are given. Whether binding was seen depends on the method and setting. Binding seen in cells or lysates may run through a third protein. Where a sequence is shown, tags or fusion partners need not be part of it.

Target: T1, GST fusion of domain 3 of generic RON2 (amino acids 1293-1345) (Toxoplasma gondii) (UniProt B6KV60)
T1 sequence: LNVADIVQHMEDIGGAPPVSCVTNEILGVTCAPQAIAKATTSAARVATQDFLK
Experiment: pull-down; Glutathione-sepharose beads prebound with 0.5 µM GST, GST-gD3 or GST-sD3 were added to cleared NP-40 lysate of tachyzoites (10 mM Tris-HCl pH 8.0, 150 mM NaCl, 1 mM EDTA, 0.1% NP-40). Rotated at room temperature for about two hours, washed three times, then immunoblotted; only the target purified

In the case of “full-length sporoAMA1 with a C-terminal HA tag (Toxoplasma gondii)”, the binding is reported as “no binding (tested: 0.5 µM GST fusion prebound to beads)”.
